These are yes or no findings as the source states them, for the method shown.

Sequences of proteins named here, by UniProt entry; tags and fusion partners are left off.
UniProt Q5SIY4: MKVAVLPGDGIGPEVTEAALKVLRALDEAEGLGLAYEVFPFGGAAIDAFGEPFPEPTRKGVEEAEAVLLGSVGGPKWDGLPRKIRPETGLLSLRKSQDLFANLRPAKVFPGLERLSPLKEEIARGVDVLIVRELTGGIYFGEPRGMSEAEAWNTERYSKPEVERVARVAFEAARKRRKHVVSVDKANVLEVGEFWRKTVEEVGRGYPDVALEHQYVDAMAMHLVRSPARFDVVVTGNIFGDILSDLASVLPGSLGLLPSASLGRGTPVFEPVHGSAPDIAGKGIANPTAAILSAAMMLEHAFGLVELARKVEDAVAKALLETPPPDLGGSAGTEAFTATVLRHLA
UniProt A0A8C2QII0: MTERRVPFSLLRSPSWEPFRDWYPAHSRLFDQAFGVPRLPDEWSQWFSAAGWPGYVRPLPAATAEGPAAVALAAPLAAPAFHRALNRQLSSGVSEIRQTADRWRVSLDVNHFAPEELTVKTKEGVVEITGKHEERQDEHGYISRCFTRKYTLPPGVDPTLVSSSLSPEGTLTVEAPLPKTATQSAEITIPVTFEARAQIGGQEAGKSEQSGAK

Experiment [1] concerns the target T1, porcine heart citrate synthase (pig) (UniProt P00889).
T1 sequence: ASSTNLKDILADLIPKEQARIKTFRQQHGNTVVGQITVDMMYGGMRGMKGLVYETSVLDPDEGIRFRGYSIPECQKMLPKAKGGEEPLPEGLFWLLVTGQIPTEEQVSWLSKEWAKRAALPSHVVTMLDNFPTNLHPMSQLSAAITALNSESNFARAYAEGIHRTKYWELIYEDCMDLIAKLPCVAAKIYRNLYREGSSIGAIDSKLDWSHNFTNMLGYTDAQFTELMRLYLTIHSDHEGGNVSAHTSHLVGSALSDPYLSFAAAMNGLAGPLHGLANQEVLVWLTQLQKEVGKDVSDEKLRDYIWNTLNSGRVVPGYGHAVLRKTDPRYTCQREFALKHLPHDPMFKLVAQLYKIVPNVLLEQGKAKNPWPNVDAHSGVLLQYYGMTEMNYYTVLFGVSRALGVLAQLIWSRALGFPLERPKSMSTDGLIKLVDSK
The experiment can be described thus: condition: only at room temperature without heating (native CS); CgHspB1WT 30 µM; SEC; mixture of CgHspB1WT (30 µM) and CS incubated at 25 °C for 30 min and analysed at 25 °C; both purified.

In experiment [2] the target is isopropyl malate dehydrogenase from Thermus thermophilus HB8 (Thermus thermophilus HB8) (UniProt Q5SIY4). The experiment can be described thus: SEC; mixture of CgHspB1WT (30 µM) and IPMDH incubated at 25 and 55 °C for 30 min and analysed at the same temperature; the 55 °C mixture also cooled and analysed at 25 °C; both purified. (In general: Size exclusion chromatography separates by hydrodynamic size, large species first.)

Turning to “wild‐type CgHspB1 (HspB1/Hsp27 from Chinese hamster ovary cells) (from UniProt A0A8C2QII0 1-213)”, the values for the binding entry in experiment [1] and in experiment [2] were “no binding” and “no binding (tested: CgHspB1WT 30 µM)”, respectively.
